{"source": "PubChem BioAssay AID743458 (Peter MacCallum Cancer Centre, 2014)", "assay": "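Find knock-downs that make vorinostat-resistant colon cancer cells sensitive again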 (follow-up of hits)", "system": "human HCT116-VR colon cancer cells made resistant to vorinostat", "reagents": "single siRNA or pool against human genes, 25 nM per single siRNA", "time to read-out": "about 72 h after transfection, including 24 h of drug", "treatment": "vorinostat, 2.5 µM final, for 24 h", "detection": "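Live-cell fluorescent viability and luminescent caspase 3/7 activity after vorinostat treatment, background subtracted, mean of duplicate plates, as fold change over mock-transfected wells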", "reading the numbers": "viability relative to mock: higher = more living cells than mock; caspase activity relative to mock: higher = more apoptosis than mock", "rule for the call": "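An siRNA counts as active if classed as reduced viability or as caspase activation, otherwise inactive; a hit class needed wells that remained healthy in the absence of drug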", "note": "In all, the deposit lists about 1,800 reagents; shown is a part drawn at random. In the full data, 732 (41%) are marked active. 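Calls are per siRNA reagent; a gene was deemed confirmed only if most of its four siRNAs scored.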 Reagents against one gene are numbered here. No sequences are given here."}
{"gene symbol": "NSF (N-ethylmaleimide sensitive factor, vesicle fusing ATPase)", "reagent": 1, "viability relative to mock": 1.14, "caspase activity relative to mock": 2.3, "viability hit class": "no change", "caspase hit class": "no change", "call": "inactive"}
{"gene symbol": "NSF (N-ethylmaleimide sensitive factor, vesicle fusing ATPase)", "reagent": 2, "viability relative to mock": 0.92, "caspase activity relative to mock": 1.94, "viability hit class": "no change", "caspase hit class": "no change", "call": "inactive"}
{"gene symbol": "NSF (N-ethylmaleimide sensitive factor, vesicle fusing ATPase)", "reagent": 3, "viability relative to mock": 0.71, "caspase activity relative to mock": 2.95, "viability hit class": "no change", "caspase hit class": "caspase activation", "call": "active"}
{"gene symbol": "NSF (N-ethylmaleimide sensitive factor, vesicle fusing ATPase)", "reagent": 4, "viability relative to mock": 0.92, "caspase activity relative to mock": 1.23, "viability hit class": "no change", "caspase hit class": "no change", "call": "inactive"}
{"gene symbol": "TCAP (titin-cap)", "reagent": 1, "viability relative to mock": 0.72, "caspase activity relative to mock": 2.02, "viability hit class": "no change", "caspase hit class": "no change", "call": "inactive"}
{"gene symbol": "TCAP (titin-cap)", "reagent": 2, "viability relative to mock": 0.64, "caspase activity relative to mock": 5.89, "viability hit class": "no change", "caspase hit class": "caspase activation", "call": "active"}
{"gene symbol": "TCAP (titin-cap)", "reagent": 3, "viability relative to mock": 0.62, "caspase activity relative to mock": 3.42, "viability hit class": "no change", "caspase hit class": "caspase activation", "call": "active"}
{"gene symbol": "TCAP (titin-cap)", "reagent": 4, "viability relative to mock": 0.88, "caspase activity relative to mock": 1.49, "viability hit class": "no change", "caspase hit class": "no change", "call": "inactive"}
{"gene symbol": "CLTB (clathrin light chain B)", "reagent": 1, "viability relative to mock": 0.44, "caspase activity relative to mock": 4.09, "viability hit class": "reduced viability", "caspase hit class": "caspase activation", "call": "active"}
{"gene symbol": "CLTB (clathrin light chain B)", "reagent": 2, "viability relative to mock": 0.82, "caspase activity relative to mock": 1.9, "viability hit class": "no change", "caspase hit class": "no change", "call": "inactive"}
{"gene symbol": "CLTB (clathrin light chain B)", "reagent": 3, "viability relative to mock": 0.68, "caspase activity relative to mock": 3.36, "viability hit class": "no change", "caspase hit class": "caspase activation", "call": "active"}
{"gene symbol": "CLTB (clathrin light chain B)", "reagent": 4, "viability relative to mock": 0.62, "caspase activity relative to mock": 2.1, "viability hit class": "no change", "caspase hit class": "no change", "call": "inactive"}
{"gene symbol": "CATSPER4 (cation channel sperm associated 4)", "reagent": 1, "viability relative to mock": 0.88, "caspase activity relative to mock": 1.03, "viability hit class": "no change", "caspase hit class": "no change", "call": "inactive"}
{"gene symbol": "CATSPER4 (cation channel sperm associated 4)", "reagent": 2, "viability relative to mock": 0.38, "caspase activity relative to mock": 2.29, "viability hit class": "reduced viability", "caspase hit class": "no change", "call": "active"}
{"gene symbol": "CATSPER4 (cation channel sperm associated 4)", "reagent": 3, "viability relative to mock": 0.82, "caspase activity relative to mock": 1.56, "viability hit class": "no change", "caspase hit class": "no change", "call": "inactive"}
{"gene symbol": "CATSPER4 (cation channel sperm associated 4)", "reagent": 4, "viability relative to mock": 0.92, "caspase activity relative to mock": 1.23, "viability hit class": "no change", "caspase hit class": "no change", "call": "inactive"}
{"gene symbol": "FLII (FLII actin remodeling protein)", "reagent": 1, "viability relative to mock": 1.14, "caspase activity relative to mock": 2.29, "viability hit class": "no change", "caspase hit class": "no change", "call": "inactive"}
{"gene symbol": "FLII (FLII actin remodeling protein)", "reagent": 2, "viability relative to mock": 0.8, "caspase activity relative to mock": 4.99, "viability hit class": "no change", "caspase hit class": "caspase activation", "call": "active"}
{"gene symbol": "FLII (FLII actin remodeling protein)", "reagent": 3, "viability relative to mock": 0.68, "caspase activity relative to mock": 5.08, "viability hit class": "no change", "caspase hit class": "caspase activation", "call": "active"}
{"gene symbol": "FLII (FLII actin remodeling protein)", "reagent": 4, "viability relative to mock": 0.71, "caspase activity relative to mock": 3.02, "viability hit class": "no change", "caspase hit class": "caspase activation", "call": "active"}
{"gene symbol": "INTS6 (integrator complex subunit 6)", "reagent": 1, "viability relative to mock": 0.95, "caspase activity relative to mock": 1.22, "viability hit class": "no change", "caspase hit class": "no change", "call": "inactive"}
{"gene symbol": "INTS6 (integrator complex subunit 6)", "reagent": 2, "viability relative to mock": 0.64, "caspase activity relative to mock": 3.58, "viability hit class": "no change", "caspase hit class": "caspase activation", "call": "active"}
{"gene symbol": "INTS6 (integrator complex subunit 6)", "reagent": 3, "viability relative to mock": 0.74, "caspase activity relative to mock": 7.71, "viability hit class": "no change", "caspase hit class": "caspase activation", "call": "active"}
{"gene symbol": "INTS6 (integrator complex subunit 6)", "reagent": 4, "viability relative to mock": 0.75, "caspase activity relative to mock": 2.17, "viability hit class": "no change", "caspase hit class": "no change", "call": "inactive"}
{"gene symbol": "FGFRL1 (fibroblast growth factor receptor like 1)", "reagent": 1, "viability relative to mock": 0.39, "caspase activity relative to mock": 1.96, "viability hit class": "reduced viability", "caspase hit class": "no change", "call": "active"}
{"gene symbol": "FGFRL1 (fibroblast growth factor receptor like 1)", "reagent": 2, "viability relative to mock": 0.9, "caspase activity relative to mock": 0.77, "viability hit class": "no change", "caspase hit class": "no change", "call": "inactive"}
{"gene symbol": "FGFRL1 (fibroblast growth factor receptor like 1)", "reagent": 3, "viability relative to mock": 0.68, "caspase activity relative to mock": 2.14, "viability hit class": "no change", "caspase hit class": "no change", "call": "inactive"}
{"gene symbol": "FGFRL1 (fibroblast growth factor receptor like 1)", "reagent": 4, "viability relative to mock": 0.88, "caspase activity relative to mock": 2.54, "viability hit class": "no change", "caspase hit class": "no change", "call": "inactive"}

Reformatted: 2 of the entries above.
{"gene symbol":"FLII (FLII actin remodeling protein)","reagent":3,"viability relative to mock":0.68,"caspase activity relative to mock":5.08,"viability hit class":"no change","caspase hit class":"caspase activation","call":"active"}
{"gene symbol":"FLII (FLII actin remodeling protein)","reagent":4,"viability relative to mock":0.71,"caspase activity relative to mock":3.02,"viability hit class":"no change","caspase hit class":"caspase activation","call":"active"}
